Earlier results, collected in patent US7704533B2, “Compositions and methods of inducing hair growth utilizing Continus coggygria” (J&J Consumer Companies, Inc., priority 2006, dated 2010).
For at least one compound, name, drawing or mass did not settle the structure.

Tested on: male patients
Settings: cited from earlier work

Nc1cc(N2CCCCC2)nc(N)[n+]1[O-] [5% Minoxidil, Minoxidil]
patients in whom the rate of hair loss may be slowed: five out of ten
